According to patent publication US20190241925A1:
These are yes or no findings as the source states them, for the method shown. Some binding calls cover weakened binding; strength is not graded here.

Experiments:
[1] = biological target: V5-tagged IL13Rα2TF-Fc target protein; assay: capture ELISA, Protein A capture, culture medium, peroxidase-conjugated goat anti-human IgG F(ab')2 detection, TMB read at 450 nm (Example 21)
[2] = biological target: V5-tagged IL13Rα2TF-Fc target protein; assay: capture ELISA, wells coated with recombinant purified Protein A, culture medium, peroxidase-conjugated goat anti-human IgG F(ab')2 detection (Example 19)
[3] = biological target: V5-tagged IL13Rα2TF-Fc target protein; assay: capture ELISA, wells coated with recombinant purified Protein A, culture medium, peroxidase-conjugated goat anti-human IgG F(ab')2 detection (Example 20)
[4] = biological target: V5-tagged IL13Rα2TF-Fc target protein; assay: capture ELISA, wells coated with recombinant Protein A, culture medium, captured target detected with peroxidase-conjugated goat anti-human IgG F(ab')2 (Example 22)

binding [1]: binds
binding [2]: binds
binding [3]: binds
binding [4]: binds
Substance: recombinant purified Protein A (from UniProt P38507 37-327)
